# Data reported in the supplement of paper PMC10849652.
# Sequences of proteins named here, by UniProt entry; tags and fusion partners are left off. A change or cut given only in a name is not applied to a line headed by its entry.
# UniProt Q9UEE9, whole entry, looked up: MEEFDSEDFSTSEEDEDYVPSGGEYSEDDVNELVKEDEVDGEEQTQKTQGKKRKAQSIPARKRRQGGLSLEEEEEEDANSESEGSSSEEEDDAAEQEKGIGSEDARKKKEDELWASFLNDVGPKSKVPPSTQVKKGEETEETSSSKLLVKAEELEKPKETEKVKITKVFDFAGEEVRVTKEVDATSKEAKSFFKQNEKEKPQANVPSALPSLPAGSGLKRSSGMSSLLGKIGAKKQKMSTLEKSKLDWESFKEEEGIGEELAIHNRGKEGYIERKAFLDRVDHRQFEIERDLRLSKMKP
# UniProt Q14004, whole entry, looked up: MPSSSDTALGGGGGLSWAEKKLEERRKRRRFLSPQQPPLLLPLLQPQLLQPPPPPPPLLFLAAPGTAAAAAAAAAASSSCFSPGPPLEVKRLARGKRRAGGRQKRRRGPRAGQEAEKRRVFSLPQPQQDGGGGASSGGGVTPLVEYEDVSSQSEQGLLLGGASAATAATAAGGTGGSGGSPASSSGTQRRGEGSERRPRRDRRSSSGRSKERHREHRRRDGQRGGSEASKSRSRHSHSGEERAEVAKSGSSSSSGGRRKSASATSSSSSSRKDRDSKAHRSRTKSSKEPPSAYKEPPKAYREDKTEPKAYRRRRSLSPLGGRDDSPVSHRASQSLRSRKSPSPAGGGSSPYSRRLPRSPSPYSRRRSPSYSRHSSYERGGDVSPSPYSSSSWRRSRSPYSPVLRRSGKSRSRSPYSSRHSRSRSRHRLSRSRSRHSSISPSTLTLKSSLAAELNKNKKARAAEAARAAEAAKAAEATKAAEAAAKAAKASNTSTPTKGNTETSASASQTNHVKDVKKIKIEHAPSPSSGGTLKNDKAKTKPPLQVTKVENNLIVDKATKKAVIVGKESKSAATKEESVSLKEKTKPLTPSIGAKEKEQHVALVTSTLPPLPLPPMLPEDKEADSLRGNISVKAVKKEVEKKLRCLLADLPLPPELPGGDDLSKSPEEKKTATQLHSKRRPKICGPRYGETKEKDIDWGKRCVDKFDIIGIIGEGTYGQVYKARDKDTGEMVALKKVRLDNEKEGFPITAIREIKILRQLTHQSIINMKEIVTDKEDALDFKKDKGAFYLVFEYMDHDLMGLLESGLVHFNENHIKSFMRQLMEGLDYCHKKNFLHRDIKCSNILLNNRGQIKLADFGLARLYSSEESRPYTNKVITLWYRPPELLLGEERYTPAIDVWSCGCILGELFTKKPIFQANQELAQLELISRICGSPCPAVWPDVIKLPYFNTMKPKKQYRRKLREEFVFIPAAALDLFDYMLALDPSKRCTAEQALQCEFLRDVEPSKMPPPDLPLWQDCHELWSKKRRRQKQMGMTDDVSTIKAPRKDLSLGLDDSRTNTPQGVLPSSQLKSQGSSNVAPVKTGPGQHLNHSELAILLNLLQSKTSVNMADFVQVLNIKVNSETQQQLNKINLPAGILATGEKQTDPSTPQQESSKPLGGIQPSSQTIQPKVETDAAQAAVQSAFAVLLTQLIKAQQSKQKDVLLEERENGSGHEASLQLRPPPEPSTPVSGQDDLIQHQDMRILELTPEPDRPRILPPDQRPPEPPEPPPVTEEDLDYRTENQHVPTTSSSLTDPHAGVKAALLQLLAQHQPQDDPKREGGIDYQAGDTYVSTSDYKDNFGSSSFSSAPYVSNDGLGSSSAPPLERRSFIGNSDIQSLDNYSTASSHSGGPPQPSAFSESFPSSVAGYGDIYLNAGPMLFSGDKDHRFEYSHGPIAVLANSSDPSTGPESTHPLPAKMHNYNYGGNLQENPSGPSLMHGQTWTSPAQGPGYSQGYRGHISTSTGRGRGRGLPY
# UniProt Q5VT25: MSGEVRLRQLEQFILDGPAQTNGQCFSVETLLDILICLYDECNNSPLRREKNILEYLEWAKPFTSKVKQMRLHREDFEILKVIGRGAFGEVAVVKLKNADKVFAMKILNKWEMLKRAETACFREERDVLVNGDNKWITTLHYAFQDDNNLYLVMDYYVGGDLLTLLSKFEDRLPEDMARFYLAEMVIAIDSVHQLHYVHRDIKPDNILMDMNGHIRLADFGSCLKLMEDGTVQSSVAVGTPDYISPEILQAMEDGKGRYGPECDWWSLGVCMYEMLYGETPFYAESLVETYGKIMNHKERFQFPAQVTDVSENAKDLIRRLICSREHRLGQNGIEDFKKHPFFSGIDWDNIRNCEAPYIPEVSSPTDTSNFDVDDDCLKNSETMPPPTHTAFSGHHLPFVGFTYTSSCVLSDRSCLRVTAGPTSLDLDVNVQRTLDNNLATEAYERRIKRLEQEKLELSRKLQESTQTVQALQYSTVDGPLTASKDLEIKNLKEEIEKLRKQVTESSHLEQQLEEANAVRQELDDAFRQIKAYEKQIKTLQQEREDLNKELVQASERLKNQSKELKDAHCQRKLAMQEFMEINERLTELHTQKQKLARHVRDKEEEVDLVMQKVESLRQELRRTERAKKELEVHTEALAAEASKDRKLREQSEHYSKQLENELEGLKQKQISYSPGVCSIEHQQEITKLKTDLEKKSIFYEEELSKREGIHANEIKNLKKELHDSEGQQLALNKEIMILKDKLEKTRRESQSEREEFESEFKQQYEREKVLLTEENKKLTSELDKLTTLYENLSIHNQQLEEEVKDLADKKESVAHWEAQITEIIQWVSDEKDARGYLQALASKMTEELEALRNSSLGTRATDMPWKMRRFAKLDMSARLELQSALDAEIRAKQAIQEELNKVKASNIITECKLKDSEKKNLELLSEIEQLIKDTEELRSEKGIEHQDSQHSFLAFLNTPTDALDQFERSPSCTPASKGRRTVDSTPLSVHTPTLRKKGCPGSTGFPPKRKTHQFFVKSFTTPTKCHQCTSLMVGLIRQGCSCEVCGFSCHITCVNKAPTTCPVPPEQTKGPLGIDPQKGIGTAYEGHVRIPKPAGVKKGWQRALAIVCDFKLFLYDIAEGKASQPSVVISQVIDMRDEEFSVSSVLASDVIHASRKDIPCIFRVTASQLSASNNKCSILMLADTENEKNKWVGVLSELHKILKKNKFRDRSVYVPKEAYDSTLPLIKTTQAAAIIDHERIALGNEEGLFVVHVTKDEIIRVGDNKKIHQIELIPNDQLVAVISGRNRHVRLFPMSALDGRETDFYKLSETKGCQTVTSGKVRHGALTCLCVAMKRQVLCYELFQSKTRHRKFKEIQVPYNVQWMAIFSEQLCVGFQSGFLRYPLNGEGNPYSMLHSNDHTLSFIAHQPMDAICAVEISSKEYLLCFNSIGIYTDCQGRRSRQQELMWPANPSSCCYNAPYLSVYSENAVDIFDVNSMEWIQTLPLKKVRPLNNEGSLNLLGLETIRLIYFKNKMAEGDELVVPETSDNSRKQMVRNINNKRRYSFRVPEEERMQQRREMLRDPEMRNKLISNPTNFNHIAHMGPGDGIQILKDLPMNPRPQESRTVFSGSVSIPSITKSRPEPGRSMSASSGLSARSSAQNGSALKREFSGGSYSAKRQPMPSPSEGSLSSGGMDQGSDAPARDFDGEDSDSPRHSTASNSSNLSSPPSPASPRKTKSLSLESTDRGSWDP
# UniProt P08603, whole entry, looked up: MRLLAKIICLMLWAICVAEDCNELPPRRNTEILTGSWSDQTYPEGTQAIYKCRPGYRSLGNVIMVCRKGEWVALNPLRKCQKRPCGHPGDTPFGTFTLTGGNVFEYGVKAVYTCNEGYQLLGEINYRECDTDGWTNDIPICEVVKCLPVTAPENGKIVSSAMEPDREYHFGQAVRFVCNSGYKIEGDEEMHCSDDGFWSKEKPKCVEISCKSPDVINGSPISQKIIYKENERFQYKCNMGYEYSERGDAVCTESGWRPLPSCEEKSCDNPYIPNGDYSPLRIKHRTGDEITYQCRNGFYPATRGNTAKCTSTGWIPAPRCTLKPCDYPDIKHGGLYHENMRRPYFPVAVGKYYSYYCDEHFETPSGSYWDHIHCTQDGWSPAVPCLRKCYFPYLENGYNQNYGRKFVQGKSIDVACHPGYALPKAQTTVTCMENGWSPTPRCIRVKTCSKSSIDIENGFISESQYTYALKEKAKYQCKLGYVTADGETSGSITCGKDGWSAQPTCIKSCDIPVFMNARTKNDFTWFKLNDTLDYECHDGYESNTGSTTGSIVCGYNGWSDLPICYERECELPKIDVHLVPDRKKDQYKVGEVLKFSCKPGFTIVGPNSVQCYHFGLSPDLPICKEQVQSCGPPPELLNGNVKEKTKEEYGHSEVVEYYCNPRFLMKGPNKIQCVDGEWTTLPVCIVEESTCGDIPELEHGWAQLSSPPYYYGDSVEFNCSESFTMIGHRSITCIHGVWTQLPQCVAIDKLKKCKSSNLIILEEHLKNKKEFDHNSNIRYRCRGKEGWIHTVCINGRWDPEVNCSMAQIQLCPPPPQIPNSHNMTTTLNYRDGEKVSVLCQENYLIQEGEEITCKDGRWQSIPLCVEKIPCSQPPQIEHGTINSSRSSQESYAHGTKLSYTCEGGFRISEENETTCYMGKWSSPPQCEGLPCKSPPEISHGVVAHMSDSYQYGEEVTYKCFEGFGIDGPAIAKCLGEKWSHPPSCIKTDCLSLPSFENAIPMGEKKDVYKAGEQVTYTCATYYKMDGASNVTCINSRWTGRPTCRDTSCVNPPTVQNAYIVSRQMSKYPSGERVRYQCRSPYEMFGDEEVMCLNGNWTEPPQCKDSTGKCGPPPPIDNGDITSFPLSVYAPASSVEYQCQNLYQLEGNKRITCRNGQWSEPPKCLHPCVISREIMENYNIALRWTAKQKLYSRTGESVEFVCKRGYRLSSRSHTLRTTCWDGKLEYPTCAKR
# UniProt Q8N960: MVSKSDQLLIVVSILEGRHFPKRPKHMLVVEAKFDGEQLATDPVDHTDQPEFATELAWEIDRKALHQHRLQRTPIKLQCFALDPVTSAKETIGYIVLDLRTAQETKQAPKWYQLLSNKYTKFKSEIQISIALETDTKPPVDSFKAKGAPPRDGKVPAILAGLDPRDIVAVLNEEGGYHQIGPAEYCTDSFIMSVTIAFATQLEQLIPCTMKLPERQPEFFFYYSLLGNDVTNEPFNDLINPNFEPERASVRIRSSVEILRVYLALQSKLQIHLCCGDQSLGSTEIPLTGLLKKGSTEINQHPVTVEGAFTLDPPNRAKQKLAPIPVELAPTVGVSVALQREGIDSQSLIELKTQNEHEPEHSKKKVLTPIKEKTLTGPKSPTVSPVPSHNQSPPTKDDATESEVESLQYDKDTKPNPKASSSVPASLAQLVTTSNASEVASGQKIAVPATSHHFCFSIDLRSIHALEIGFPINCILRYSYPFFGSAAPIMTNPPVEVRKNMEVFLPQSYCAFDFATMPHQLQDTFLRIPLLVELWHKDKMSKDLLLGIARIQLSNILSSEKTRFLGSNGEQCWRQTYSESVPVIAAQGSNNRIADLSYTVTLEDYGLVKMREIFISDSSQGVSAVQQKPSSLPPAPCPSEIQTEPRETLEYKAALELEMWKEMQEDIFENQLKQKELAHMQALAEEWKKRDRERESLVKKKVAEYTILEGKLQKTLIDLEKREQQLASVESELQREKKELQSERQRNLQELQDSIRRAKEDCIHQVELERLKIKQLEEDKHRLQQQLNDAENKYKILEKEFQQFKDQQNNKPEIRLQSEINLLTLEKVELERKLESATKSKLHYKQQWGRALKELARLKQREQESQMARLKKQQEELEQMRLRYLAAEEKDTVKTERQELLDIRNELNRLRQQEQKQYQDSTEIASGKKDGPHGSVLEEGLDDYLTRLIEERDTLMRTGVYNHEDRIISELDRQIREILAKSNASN
# UniProt Q6P2H3: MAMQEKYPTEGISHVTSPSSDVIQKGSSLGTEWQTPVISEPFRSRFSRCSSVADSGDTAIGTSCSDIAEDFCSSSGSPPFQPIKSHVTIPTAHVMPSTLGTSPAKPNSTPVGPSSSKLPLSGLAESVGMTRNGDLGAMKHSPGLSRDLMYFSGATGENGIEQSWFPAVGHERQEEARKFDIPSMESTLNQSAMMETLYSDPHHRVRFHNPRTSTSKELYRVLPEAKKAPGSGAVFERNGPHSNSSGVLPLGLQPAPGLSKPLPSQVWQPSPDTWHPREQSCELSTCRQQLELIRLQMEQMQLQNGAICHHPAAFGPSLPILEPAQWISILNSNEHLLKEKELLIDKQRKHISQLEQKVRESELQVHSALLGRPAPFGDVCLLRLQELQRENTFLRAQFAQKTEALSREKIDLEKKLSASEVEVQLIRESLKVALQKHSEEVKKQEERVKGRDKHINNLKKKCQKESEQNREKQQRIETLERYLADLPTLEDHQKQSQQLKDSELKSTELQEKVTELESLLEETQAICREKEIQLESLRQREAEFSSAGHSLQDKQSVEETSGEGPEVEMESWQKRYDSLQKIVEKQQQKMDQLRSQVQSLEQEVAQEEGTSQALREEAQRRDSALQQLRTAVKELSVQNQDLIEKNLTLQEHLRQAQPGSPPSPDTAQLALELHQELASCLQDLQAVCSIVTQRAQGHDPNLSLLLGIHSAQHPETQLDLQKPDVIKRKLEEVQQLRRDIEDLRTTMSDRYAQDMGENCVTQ
# Some of the results follow.
# Tests used:
# Test in all cases: log2 fold change, soluble protein after heating vs DMSO (PISA); higher = thermal stabilisation; K562 lysate, 10 uM; active = over 0.2 and 3.5 SD of the protein, either way, in both replicates (recomputed)
# [1] = compound: C=CC(=O)N1CCC[C@@H](n2nc(-c3ccc(Oc4ccccc4)cc3)c3c(N)ncnc32)C1 [ibrutinib]
# How it was run: (§1)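 A 30 min treatment with 10 μM compound was applied to crude K562 extract at 1 mg/mL protein in PBS pH 7.4 with 1 mM MgCl2. Heating for 3 min spanned 48°C-58°C, after which aliquots were pooled, adjusted to 0.5% NP-40 at 4°C and spun at 21,000xg for 90 min. TMTpro 16plex LC-MS/MS of the supernatant, with channel sums equalised, gave values recorded as log-two fold change in thermal stability against solvent controls, from duplicates.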
# [2] = compound: CC(=O)c1cnc2ccc(-c3cc(Cl)c(O)c(Cl)c3)nc2c1N[C@H]1CC[C@H](CN(C)C)CC1
# How it was run: as §1
# [3] = compound: CC(C)(C)Cn1c(N)nc2ccc(-c3[nH]c(C(C)(C)C)nc3-c3ccc(F)cc3)nc21 [ralimetinib]
# How it was run: as §1
# [4] = compound: CC(C)(O)CC(=O)NCCn1ccc2ncnc(Nc3ccc(Oc4cccc(C(F)(F)F)c4)c(Cl)c3)c21
# How it was run: as §1
# [5] = compound: CC(C)C1=C2N=C(C=C(N2N=C1)NCC3=CC=CC=C3)NCCCCCCN
# How it was run: as §1
# [6] = compound: CC1=C(C(CC(=O)N1)C2=CC=C(C=C2)C(F)(F)F)C(=O)NC3=C(C=C4C(=C3)C=NN4)F
# How it was run: as §1
# [7] = compound: CC1=C(C2=C(C=C1)C(=O)C3=CC=CC=C3N2CCCN)C
# How it was run: as §1
# [8] = compound: CC1=C(C=C(C=C1)NC(=O)C2=CC(=CC=C2)C(C)(C)C#N)NC3=CC4=C(C=C3)N=CN(C4=O)C
# How it was run: as §1
# [9] = compound: CC1=C(C=C(C=C1)NC(=O)C2=CC(=CC=C2)N(C)C)NC(=O)C3=CC=C(C=C3)O
# How it was run: as §1
# [10] = compound: CC1=CC=C(C=C1)SC2=C3C=C(SC3=CN=C2)C(=O)N
# How it was run: as §1
Target,log2 fold change [1],log2 fold change [2],log2 fold change [3],log2 fold change [4],log2 fold change [5],log2 fold change [6],log2 fold change [7],log2 fold change [8],log2 fold change [9],log2 fold change [10]
CFDP1 (UniProt Q9UEE9),inactive: 0.032,inactive: 0.014,inactive: 0.051,inactive: -0.015,inactive: -0.052,inactive: -0.014,inactive: -0.027,inactive: 0.021,inactive: 0.027,inactive: -0.012
CDK19 (UniProt Q9BWU1),inactive: -0.115,inactive: 0.088,inactive: 0.056,inactive: 0.048,inactive: 0,inactive: -0.255,inactive: -0.033,inactive: 0.09,inactive: -0.031,inactive: -0.003
CEP350 (UniProt Q5VT06),inactive: 0.092,inactive: 0.041,inactive: 0.033,inactive: 0.02,inactive: 0.008,inactive: 0.008,inactive: 0.018,inactive: -0.027,inactive: 0.006,inactive: 0.065
CDK13 (UniProt Q14004),inactive: -0.038,active: 0.271,inactive: 0.031,inactive: 0.141,inactive: -0.056,inactive: -0.039,inactive: 0.041,inactive: -0.104,inactive: -0.028,inactive: -0.022
CDC20 (UniProt Q12834),inactive: 0.04,inactive: 0.03,inactive: -0.036,inactive: 0.018,inactive: 0.042,inactive: -0.006,inactive: -0.081,inactive: 0.035,inactive: -0.064,inactive: 0.091
CDC42BPA isoform 6 (UniProt Q5VT25),inactive: 0.016,inactive: 0.039,inactive: 0.012,inactive: -0.013,inactive: 0.03,inactive: 0.005,inactive: -0.004,inactive: 0.018,inactive: 0.034,inactive: -0.003
CEP290 (UniProt O15078),inactive: -0.102,inactive: -0.003,inactive: 0.101,inactive: -0.205,inactive: -0.057,inactive: -0.006,inactive: -0.043,inactive: 0.044,inactive: -0.018,inactive: -0.005
CFH (UniProt P08603),inactive: -0.021,inactive: -0.03,inactive: -0.095,inactive: -0.072,inactive: -0.003,inactive: 0.134,inactive: 0.005,inactive: -0.038,inactive: 0.015,inactive: -0.043
CDC16 (UniProt Q13042),inactive: 0.02,inactive: 0.019,inactive: 0.025,inactive: -0.022,inactive: 0.012,inactive: -0.006,inactive: 0.04,inactive: -0.029,inactive: -0.005,inactive: 0.025
CELF1 isoform 4 (UniProt Q92879),inactive: 0.027,inactive: -0.027,inactive: 0.034,inactive: -0.004,inactive: 0.033,inactive: 0.072,inactive: 0.016,active: -0.331,inactive: 0,inactive: 0.025
CEP120 (UniProt Q8N960),inactive: -0.02,inactive: -0.061,inactive: -0.076,inactive: -0.132,inactive: 0.001,inactive: -0.174,inactive: -0.224,inactive: -0.015,inactive: 0.001,inactive: -0.085
CEP85 isoform 2 (UniProt Q6P2H3),inactive: -0.004,inactive: -0.053,inactive: -0.023,inactive: -0.007,inactive: 0.004,inactive: 0.076,inactive: 0,inactive: -0.032,inactive: 0.02,inactive: 0.043
CGGBP1 (UniProt Q9UFW8),inactive: 0.024,inactive: -0.029,inactive: 0.013,inactive: 0.015,inactive: 0.015,inactive: -0.023,inactive: -0.018,inactive: 0.018,inactive: 0.006,inactive: 0.001

# Record cards (already shown). Values in the order: log2 fold change [1]	log2 fold change [2]	log2 fold change [3]	log2 fold change [4]	log2 fold change [5]	log2 fold change [6]	log2 fold change [7]	log2 fold change [8]	log2 fold change [9]	log2 fold change [10]
# CDC42BPA isoform 6 (UniProt Q5VT25) in the list: inactive: 0.016	inactive: 0.039	inactive: 0.012	inactive: -0.013	inactive: 0.03	inactive: 0.005	inactive: -0.004	inactive: 0.018	inactive: 0.034	inactive: -0.003
# CFDP1 (UniProt Q9UEE9) in the list: inactive: 0.032	inactive: 0.014	inactive: 0.051	inactive: -0.015	inactive: -0.052	inactive: -0.014	inactive: -0.027	inactive: 0.021	inactive: 0.027	inactive: -0.012
